{"sequences": {"note": "Chains of the proteins cited; added tags and fusions are not shown. Lines headed by an entry give the natural chain unless they say otherwise; changes in a name come on top.", "UniProt P18054": "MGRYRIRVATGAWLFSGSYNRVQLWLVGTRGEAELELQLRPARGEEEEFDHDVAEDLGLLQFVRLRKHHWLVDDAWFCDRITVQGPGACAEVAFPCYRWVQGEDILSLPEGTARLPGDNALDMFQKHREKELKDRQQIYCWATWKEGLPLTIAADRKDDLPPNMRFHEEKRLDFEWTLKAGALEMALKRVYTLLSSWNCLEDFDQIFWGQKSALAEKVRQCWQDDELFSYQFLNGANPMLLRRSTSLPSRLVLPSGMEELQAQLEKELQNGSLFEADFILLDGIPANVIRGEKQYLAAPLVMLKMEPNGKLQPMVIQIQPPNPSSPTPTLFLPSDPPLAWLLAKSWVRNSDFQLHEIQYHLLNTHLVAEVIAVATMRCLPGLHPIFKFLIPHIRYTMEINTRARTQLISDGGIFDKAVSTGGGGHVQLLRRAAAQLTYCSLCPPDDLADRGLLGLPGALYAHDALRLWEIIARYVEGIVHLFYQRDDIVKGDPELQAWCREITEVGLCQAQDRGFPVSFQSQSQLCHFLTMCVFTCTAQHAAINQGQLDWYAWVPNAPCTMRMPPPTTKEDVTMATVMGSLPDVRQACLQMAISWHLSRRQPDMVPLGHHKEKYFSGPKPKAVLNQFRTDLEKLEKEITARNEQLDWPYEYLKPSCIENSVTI"}, "source": "PubChem BioAssay AID1671190", "about": "(National Center for Advancing Translational Sciences (NCATS), 2021)", "note": "In all, about 580,000 compounds went through this assay and about 6,100 (1.1%) were called active. The inconclusive results got no clear call from the source; some entries with a clear call stand among them for comparison. Calls follow the shape of the dose curve; as a rule, active = well fitted inhibition curve with a large enough effect; inconclusive = small, poorly fitted or top-dose-only effect, or another doubt; inactive = no such curve, though single readings can be large or run the other way. A potency beside an inconclusive call is a rough fit, not a confirmed value. % is scaled to controls: 0 for no effect and ±100 for the full control effect; potency is read from the fitted curve at half-maximal effect.", "data": [{"biological_target": "Polyunsaturated fatty acid lipoxygenase ALOX12 (Homo sapiens) (UniProt P18054)", "experiment": "Primary qHTS assay for inhibitors of human arachidonate 12S-lipoxygenase (ALOX12): Round 2", "conditions": "purified 12hLO, xylenol orange hydroperoxide absorbance; activity change, negative = inhibition: at 108 µM (top of the series) unless noted", "outline": "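Hydroperoxide product was detected by ferrous iron/xylenol orange as the 573 to 405 nm absorbance ratio. Arachidonic acid at 40 uM (final) was turned over for 30 min at room temperature by 150 nM human 12hLO, pH 7.0 Hepes buffer, after 15 min compound preincubation.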", "values": [{"molecule": "O=C(Nc1ccc2c(c1)OCCO2)c1cccnc1", "Potency": "inactive"}, {"molecule": "CN(C(=O)CSc1nc(N2CCOCC2)c2c(c1C#N)CCCC2)c1ccccc1", "Potency": "inactive"}, {"molecule": "O=C(CCc1ccccc1)N1CCN(c2ccccc2F)CC1", "Potency": "inactive"}, {"molecule": "CCN(CC)CCCNc1oc(-c2ccco2)nc1S(=O)(=O)c1ccc2c(c1)OCCO2", "Potency": "inconclusive: 35.5 µM [inhibitor, partial curve, poor fit]"}, {"molecule": "O=C(NC1CCS(=O)(=O)C1)c1ccc(Cl)c(S(=O)(=O)N2CCCCCC2)c1", "note": "(stereo unspecified)", "Potency": "inconclusive: 39.8 µM [inhibitor, partial curve, poor fit]"}, {"molecule": "O=C(COc1ncnc2sc3c(c12)CCCC3)N1CCc2ccccc2C1", "Potency": "inconclusive: 100 µM [inhibitor, single point]"}, {"molecule": "S=c1[nH]nc(Cc2cccc3ccccc23)n1-c1ccccc1", "Potency": "inconclusive: 35.5 µM [inhibitor, partial curve, poor fit]"}, {"molecule": "Cc1ccc(/C=C/C(=O)NCC2COc3ccccc3O2)o1", "note": "(stereo unspecified)", "Potency": "inconclusive: 35.5 µM [inhibitor, partial curve]"}, {"molecule": "Cn1c2ccccc2c2cc(C(=O)NNC(=O)CCl)sc21", "Potency": "inactive"}, {"molecule": "O=S1(=O)CCC(S(=O)(=O)Nc2ccc(F)cc2)C1", "note": "(stereo unspecified)", "Potency": "inactive"}, {"molecule": "COc1cc(C(=O)/C=C/c2cccc(F)c2)ccc1S(C)(=O)=O", "Potency": "inconclusive: 3.98 µM [inhibitor, full curve]"}, {"molecule": "COc1ccc(CNCC(O)COc2ccc(C(C)(C)C)cc2C)cc1OC", "note": "(stereo unspecified)", "Potency": "inconclusive: 0.251 µM [inhibitor, full curve, poor fit]"}, {"molecule": "CCOc1ccc(C2Nc3cccc4cccc(c34)N2)cc1OC", "Potency": "inactive"}, {"molecule": "CC(OC(=O)c1nn(-c2ccccc2)c(=O)c2ccccc12)C(=O)N1CCCCCC1", "note": "(stereo unspecified)", "Potency": "inconclusive: 50.1 µM [inhibitor, partial curve, poor fit]"}, {"molecule": "Cc1cc(C(=O)CN2CCCC2)c(C)n1-c1ccc(Cl)cc1", "Potency": "inactive"}, {"molecule": "O=C1CCN(Cc2ccccc2)C=C1c1ccc(C(F)(F)F)cc1", "Potency": "inconclusive: 17.8 µM [inhibitor, partial curve, poor fit]"}, {"molecule": "CCOC(=O)c1c(NC(=O)c2ccc(C)cc2)sc2c1CCCCC2", "Potency": "inactive"}, {"molecule": "CC(=O)c1ccc(S(=O)(=O)Nc2ccc(-c3cn4c(C)csc4n3)cc2)cc1", "Potency": "inactive"}, {"molecule": "C=CCOC(=O)C1=C(C)NC(SCC(=O)N(CC)CC)=C(C#N)C1c1ccccc1", "note": "(stereo unspecified)", "Potency": "inactive"}, {"molecule": "COc1cccc(-c2nc(-c3ccccc3)c3ccc(Cl)cc3n2)c1", "Potency": "inconclusive: 50.1 µM [inhibitor, partial curve, poor fit]"}, {"molecule": "Cc1nn(CC(=O)N2CCN(C(=O)CC(C)C)CC2)c(=O)c2ccccc12", "Potency": "inconclusive: 44.7 µM [inhibitor, partial curve, poor fit]"}, {"molecule": "COc1cccc(OCC(O)CN2CCN(C(c3ccccc3)c3ccccc3)CC2)c1", "note": "(stereo unspecified)", "Potency": "inconclusive: 39.8 µM [inhibitor, partial curve, poor fit]"}, {"molecule": "COc1ccccc1-c1nc2ccccc2n(CC(C)C)c1=O", "Potency": "inconclusive: 89.1 µM [inhibitor, partial curve, poor fit]"}, {"molecule": "CCCC(NC(=O)NCc1ccc(F)cc1)C(=O)N(C)CC(=O)N(CC)CC", "note": "(stereo unspecified)", "Potency": "inactive"}, {"molecule": "CCOc1cc(NC(=O)c2ccco2)c(OCC)cc1NC(=O)Cc1cccc(OC)c1", "Potency": "inactive"}, {"molecule": "CCc1ccc(N2CC(c3nnc(NC(=O)c4ccco4)s3)CC2=O)cc1", "note": "(stereo unspecified)", "Potency": "inconclusive: 56.2 µM [inhibitor, partial curve, poor fit]"}, {"molecule": "Cc1nc(CN2CCOC3(CCN(Cc4ccccc4Cl)CC3)C2=O)cs1", "Potency": "inactive"}, {"molecule": "C[C@@H]1CN([C@@H](C)CO)C(=O)CCCn2nncc2CO[C@H]1CN(C)S(=O)(=O)c1cccc(C#N)c1", "Potency": "inconclusive: 35.5 µM [inhibitor, single point]"}, {"molecule": "CC(=O)Nc1ccc(NC(=S)NC(NC(=O)C(C)(C)C)C(Cl)(Cl)Cl)cc1", "note": "(stereo unspecified)", "Potency": "inconclusive: 39.8 µM [inhibitor, partial curve, poor fit]"}, {"molecule": "COc1cccc(CN2CCC3(CC2)Cc2ccccc2NC3=O)c1", "Potency": "inactive"}, {"molecule": "COc1ccc(CCN2C(=S)NC3CC2(C)Oc2ccc([N+](=O)[O-])cc23)cc1OC", "note": "(stereo unspecified)", "Potency": "inconclusive: 35.5 µM [inhibitor, partial curve, poor fit]"}, {"molecule": "COc1ccc(-n2nc(C3CCN(C(=O)c4cccc(Cl)c4)CC3)[nH]c2=O)cc1", "Potency": "inconclusive: 70.8 µM [inhibitor, partial curve]"}, {"molecule": "COc1ccc(O)c(-c2cc(-c3ccc(F)cc3)n[nH]2)c1", "Potency": "inactive"}, {"molecule": "CCCOc1ccc(NC(=O)CC2C(=O)N(CC)C(=S)N2CCCN2CCN(Cc3ccccc3)CC2)cc1", "note": "(stereo unspecified)", "Potency": "inconclusive: 44.7 µM [inhibitor, partial curve, poor fit]"}, {"molecule": "Cc1ccc(NS(=O)(=O)c2cccc(Cl)c2Cl)cc1S(=O)(=O)N(C)C", "Potency": "inactive"}, {"molecule": "CCOc1cc2ccccc2cc1C(=O)O", "Potency": "inconclusive: 44.7 µM [inhibitor, partial curve, poor fit]"}, {"molecule": "CC1CN(C2CCN(S(=O)(=O)Cc3ccccc3)CC2)CC(C)O1", "note": "(stereo unspecified)", "Potency": "inconclusive: 0.708 µM [inhibitor, full curve, poor fit]"}, {"molecule": "CCc1c(C)sc(NC(=O)C(C)(C)C)c1C#N", "Potency": "inconclusive: 44.7 µM [inhibitor, partial curve, poor fit]"}, {"molecule": "CCc1cccc(CC)c1NC(=S)NCCc1c(C)[nH]c2ccccc12", "Potency": "inconclusive: 39.8 µM [inhibitor, partial curve, poor fit]"}, {"molecule": "Cc1ccc(Nc2nc(-c3ccccc3)nc3ccccc23)cc1", "Potency": "inconclusive: 10 µM [inhibitor, partial curve, poor fit]"}, {"molecule": "Cc1ccc(S(=O)(=O)n2cnc3cc(C)c(C)cc32)cc1C", "Potency": "inconclusive: 5.01 µM [inhibitor, partial curve, poor fit]"}, {"molecule": "CN[C@H](C(=O)N[C@H]1C[C@@](O)(C(=O)N[C@@H](Cc2cccs2)C(N)=O)C[C@@H](O)[C@@H]1O)C(C)C", "Potency": "inactive"}, {"molecule": "O=[N+]([O-])c1cc(Br)c(O)c(/C=N/Nc2nnnn2-c2cccc3ccccc23)c1", "Potency": "active: 11.2 µM"}, {"molecule": "COc1ccccc1NC(=O)CSc1oc(-c2ccco2)nc1S(=O)(=O)c1ccc(C)cc1", "Potency": "inconclusive: 50.1 µM [inhibitor, partial curve, poor fit]"}, {"molecule": "N#CC(C(=O)NCc1ccccc1)C(=O)c1cccc(C(F)(F)F)c1", "note": "(stereo unspecified)", "Potency": "inconclusive: 5.01 µM [inhibitor, full curve, poor fit]"}, {"molecule": "COc1ccc(-c2ccc3c(c2)C(=O)N2CC[C@H](NC(=O)NC4CCCCC4)[C@H]2C(=O)N3)cc1", "Potency": "inconclusive: 6.31 µM [inhibitor, full curve]"}, {"molecule": "CCOC(=O)c1c(C)[nH]c(C)c1C(=O)COC(=O)c1ccc(OC)c(OC)c1", "Potency": "inconclusive: 17.8 µM [inhibitor, single point]"}, {"molecule": "COc1ccc2[nH]c(C(=O)N3CCc4ccccc4C3)cc2c1", "Potency": "inconclusive: 12.6 µM [inhibitor, full curve, poor fit]"}, {"molecule": "CS(=O)(=O)N(CC(=O)NCC1CCCO1)c1cc(Cl)c(Cl)cc1Cl", "note": "(stereo unspecified)", "Potency": "inconclusive: 56.2 µM [inhibitor, partial curve, poor fit]"}, {"molecule": "N#C/C(=C\\c1cccs1)C(=O)c1ccccc1Cl", "Potency": "inconclusive: 79.4 µM [inhibitor, single point]"}, {"molecule": "Cc1onc(-c2ccccc2)c1C(=O)Nc1ccc2c(c1)OCCO2", "Potency": "inactive"}, {"molecule": "Cc1nn(-c2cccc(Cl)c2)c2c1C(c1cccnc1)C(C#N)=C(N)O2", "note": "(stereo unspecified)", "Potency": "inactive"}, {"molecule": "CS(=O)(=O)Nc1cccc(-c2ccc3ncnc(N4CCOCC4)c3c2)c1", "Potency": "inactive"}, {"molecule": "CCCCOC(=O)Cc1c(O)c2ccccc2[nH]c1=O", "Potency": "inconclusive: 56.2 µM [inhibitor, partial curve, poor fit]"}, {"molecule": "COc1ccc(CCNC(=O)c2c(O)nc3ccccn3c2=O)cc1OC", "Potency": "inconclusive: 5.01 µM [inhibitor, full curve, poor fit]"}, {"molecule": "COC(=O)[C@@]1(Cc2ccc(F)cc2)[C@H]2c3cc(C(=O)N(C)C)n(CCc4c[nH]c5ccc(O)cc45)c3C[C@H]2CN1C(=O)c1ccccc1", "Potency": "inactive"}, {"molecule": "CCCNC(=O)CCc1c[nH]c2ccccc12", "Potency": "inconclusive: 15.8 µM [inhibitor, partial curve]"}, {"molecule": "O=C(c1ccncc1)N1CCCC(CN2CCOCC2)CC1", "note": "(stereo unspecified)", "Potency": "inactive"}, {"molecule": "Cc1[nH][nH]c(=O)c1N=Nc1ccccc1Cl", "Potency": "inconclusive: 25.1 µM [inhibitor, partial curve, poor fit]"}, {"molecule": "Cc1cccc(NC(=O)Cn2c(N3CCc4ccccc4C3)nc(C)cc2=O)c1", "Potency": "inconclusive: 28.2 µM [inhibitor, partial curve, poor fit]"}, {"molecule": "Cc1ccccc1NC(=O)CSc1nc2ccccc2nc1C", "Potency": "inconclusive: 100 µM [inhibitor, single point]"}, {"molecule": "CC(=O)Oc1ccccc1/C=C/c1nc2ccccc2c(=O)o1", "activity change, negative = inhibition": "inconclusive: -43.6% [inhibitor]"}, {"molecule": "C=CSc1sc(Cl)c(N(CC)CC)c1[N+](=O)[O-]", "Potency": "inconclusive: 56.2 µM [inhibitor, partial curve, poor fit]"}, {"molecule": "COC(=O)[C@@H]1Cc2ncn(Cc3ccccc3)c2CN1S(=O)(=O)Cc1ccccc1", "Potency": "inactive"}, {"molecule": "COc1ccccc1NC(=O)CSc1nnc(C)n2c1cc1oc(C)cc12", "Potency": "inconclusive: 35.5 µM [inhibitor, partial curve, poor fit]"}, {"molecule": "C=C1/C(=C\\C=C2\\CCCC3(C)C2CCC3C(C)/C=C/C(O)C2CC2)CC(O)CC1O", "note": "(stereo unspecified)", "Potency": "inconclusive: 39.8 µM [inhibitor, partial curve, poor fit]"}]}]}
